Reference: the supplement of paper PMC10849652
This is one part of the list.

The chains behind the UniProt entries cited, without tags or fusion partners. Where a name states a change or a piece, a line headed by the entry shows the natural chain unless it says otherwise.
UniProt Q86V87: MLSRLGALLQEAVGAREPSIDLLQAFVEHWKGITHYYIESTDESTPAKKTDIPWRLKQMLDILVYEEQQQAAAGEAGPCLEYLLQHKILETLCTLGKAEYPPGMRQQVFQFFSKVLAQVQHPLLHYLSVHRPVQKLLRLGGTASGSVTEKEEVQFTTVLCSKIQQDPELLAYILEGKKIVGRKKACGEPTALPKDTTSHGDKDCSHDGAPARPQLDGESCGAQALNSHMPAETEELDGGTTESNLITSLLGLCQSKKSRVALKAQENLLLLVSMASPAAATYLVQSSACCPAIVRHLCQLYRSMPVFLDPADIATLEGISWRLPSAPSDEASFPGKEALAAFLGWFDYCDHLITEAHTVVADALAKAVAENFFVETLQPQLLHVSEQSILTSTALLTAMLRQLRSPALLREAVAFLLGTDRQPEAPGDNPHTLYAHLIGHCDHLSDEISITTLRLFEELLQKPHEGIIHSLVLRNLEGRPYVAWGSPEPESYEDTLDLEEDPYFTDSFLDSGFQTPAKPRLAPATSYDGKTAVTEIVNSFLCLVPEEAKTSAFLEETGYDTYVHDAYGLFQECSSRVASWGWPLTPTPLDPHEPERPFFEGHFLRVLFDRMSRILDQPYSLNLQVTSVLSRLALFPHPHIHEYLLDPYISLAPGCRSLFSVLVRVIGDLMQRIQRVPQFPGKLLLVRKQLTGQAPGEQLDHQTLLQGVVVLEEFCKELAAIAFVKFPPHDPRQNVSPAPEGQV
UniProt Q8WU58: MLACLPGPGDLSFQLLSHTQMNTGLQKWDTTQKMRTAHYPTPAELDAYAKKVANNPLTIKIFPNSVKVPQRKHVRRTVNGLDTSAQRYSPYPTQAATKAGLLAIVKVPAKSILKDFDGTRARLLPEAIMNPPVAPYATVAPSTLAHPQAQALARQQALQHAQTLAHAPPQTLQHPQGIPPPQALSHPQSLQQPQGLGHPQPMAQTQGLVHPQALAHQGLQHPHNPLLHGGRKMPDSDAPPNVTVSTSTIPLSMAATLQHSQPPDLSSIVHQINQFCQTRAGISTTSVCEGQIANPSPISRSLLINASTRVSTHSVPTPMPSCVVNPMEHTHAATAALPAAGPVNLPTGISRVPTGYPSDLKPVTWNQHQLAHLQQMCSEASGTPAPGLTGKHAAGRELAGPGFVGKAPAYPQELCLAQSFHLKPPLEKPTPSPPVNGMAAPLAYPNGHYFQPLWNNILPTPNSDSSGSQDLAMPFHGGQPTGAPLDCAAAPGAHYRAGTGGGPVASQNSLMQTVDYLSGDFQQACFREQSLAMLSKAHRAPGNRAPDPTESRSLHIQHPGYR
UniProt Q5RKV6, whole entry, looked up: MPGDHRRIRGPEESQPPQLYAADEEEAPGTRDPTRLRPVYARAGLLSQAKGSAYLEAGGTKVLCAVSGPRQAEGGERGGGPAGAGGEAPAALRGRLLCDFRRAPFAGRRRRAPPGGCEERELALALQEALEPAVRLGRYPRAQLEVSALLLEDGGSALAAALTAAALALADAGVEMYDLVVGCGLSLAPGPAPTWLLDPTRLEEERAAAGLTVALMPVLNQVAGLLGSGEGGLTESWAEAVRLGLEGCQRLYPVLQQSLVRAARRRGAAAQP
UniProt Q8N612: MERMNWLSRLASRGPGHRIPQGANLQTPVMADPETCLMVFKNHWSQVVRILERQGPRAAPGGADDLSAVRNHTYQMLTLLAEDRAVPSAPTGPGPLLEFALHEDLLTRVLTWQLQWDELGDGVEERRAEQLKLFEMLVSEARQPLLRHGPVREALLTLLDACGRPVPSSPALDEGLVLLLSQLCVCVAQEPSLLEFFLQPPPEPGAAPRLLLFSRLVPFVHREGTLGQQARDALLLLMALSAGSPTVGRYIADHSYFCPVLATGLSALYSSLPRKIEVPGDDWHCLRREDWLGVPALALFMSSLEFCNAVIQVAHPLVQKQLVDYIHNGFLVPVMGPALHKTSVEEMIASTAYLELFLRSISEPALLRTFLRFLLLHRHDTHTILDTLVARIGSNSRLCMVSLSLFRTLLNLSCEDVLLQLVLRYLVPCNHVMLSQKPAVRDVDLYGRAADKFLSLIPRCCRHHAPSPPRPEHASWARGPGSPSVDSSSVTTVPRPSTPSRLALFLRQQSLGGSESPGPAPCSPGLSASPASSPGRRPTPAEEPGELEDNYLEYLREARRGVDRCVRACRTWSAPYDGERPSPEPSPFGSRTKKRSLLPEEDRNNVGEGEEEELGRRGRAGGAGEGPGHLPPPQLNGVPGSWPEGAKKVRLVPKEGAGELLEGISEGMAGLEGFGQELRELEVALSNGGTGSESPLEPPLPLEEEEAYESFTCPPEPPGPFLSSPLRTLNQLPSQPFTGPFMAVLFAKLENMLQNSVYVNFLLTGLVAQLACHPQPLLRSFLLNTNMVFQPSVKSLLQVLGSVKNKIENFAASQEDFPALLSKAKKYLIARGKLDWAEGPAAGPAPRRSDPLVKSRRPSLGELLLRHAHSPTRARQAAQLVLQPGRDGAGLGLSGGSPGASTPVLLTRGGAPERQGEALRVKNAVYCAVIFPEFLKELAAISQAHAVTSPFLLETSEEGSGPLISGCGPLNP
UniProt Q6IPR1: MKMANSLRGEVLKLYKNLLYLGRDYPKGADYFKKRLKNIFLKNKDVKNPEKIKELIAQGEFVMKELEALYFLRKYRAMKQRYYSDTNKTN
UniProt Q9BYI3: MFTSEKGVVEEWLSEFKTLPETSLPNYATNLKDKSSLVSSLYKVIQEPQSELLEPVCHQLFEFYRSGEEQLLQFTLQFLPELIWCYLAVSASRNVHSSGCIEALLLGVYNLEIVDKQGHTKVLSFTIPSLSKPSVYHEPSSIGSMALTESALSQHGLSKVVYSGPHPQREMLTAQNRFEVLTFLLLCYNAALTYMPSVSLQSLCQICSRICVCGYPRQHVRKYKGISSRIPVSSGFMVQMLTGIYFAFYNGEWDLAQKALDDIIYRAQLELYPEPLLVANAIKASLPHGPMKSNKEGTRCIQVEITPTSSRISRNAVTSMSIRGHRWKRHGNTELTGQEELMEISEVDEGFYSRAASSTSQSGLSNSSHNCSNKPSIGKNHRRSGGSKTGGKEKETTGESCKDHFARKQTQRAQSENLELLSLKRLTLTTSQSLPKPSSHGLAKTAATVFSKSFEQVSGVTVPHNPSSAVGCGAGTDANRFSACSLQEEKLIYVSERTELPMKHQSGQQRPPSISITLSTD
UniProt Q8N0U4: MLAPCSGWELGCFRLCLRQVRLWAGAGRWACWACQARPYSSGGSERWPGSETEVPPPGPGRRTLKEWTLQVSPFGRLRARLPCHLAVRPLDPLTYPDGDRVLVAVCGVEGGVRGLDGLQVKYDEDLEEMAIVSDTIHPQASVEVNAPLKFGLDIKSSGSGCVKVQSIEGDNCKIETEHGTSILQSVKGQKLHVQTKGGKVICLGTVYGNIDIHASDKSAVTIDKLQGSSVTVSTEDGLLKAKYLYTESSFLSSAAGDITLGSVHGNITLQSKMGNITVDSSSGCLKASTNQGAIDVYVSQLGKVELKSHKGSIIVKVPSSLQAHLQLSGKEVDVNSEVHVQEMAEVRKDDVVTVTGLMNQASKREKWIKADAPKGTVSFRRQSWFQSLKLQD
UniProt Q9UI08, whole entry, looked up: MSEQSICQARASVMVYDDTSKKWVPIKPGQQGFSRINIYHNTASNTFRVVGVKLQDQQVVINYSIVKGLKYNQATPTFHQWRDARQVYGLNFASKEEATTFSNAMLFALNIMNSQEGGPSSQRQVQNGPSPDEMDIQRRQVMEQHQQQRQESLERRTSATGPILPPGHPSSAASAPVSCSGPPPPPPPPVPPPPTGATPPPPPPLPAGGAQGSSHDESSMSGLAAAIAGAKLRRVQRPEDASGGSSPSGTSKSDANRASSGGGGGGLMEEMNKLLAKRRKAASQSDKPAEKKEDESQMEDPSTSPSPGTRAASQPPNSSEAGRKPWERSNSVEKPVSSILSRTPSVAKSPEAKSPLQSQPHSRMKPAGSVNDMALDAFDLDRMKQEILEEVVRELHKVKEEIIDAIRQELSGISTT
UniProt P43268: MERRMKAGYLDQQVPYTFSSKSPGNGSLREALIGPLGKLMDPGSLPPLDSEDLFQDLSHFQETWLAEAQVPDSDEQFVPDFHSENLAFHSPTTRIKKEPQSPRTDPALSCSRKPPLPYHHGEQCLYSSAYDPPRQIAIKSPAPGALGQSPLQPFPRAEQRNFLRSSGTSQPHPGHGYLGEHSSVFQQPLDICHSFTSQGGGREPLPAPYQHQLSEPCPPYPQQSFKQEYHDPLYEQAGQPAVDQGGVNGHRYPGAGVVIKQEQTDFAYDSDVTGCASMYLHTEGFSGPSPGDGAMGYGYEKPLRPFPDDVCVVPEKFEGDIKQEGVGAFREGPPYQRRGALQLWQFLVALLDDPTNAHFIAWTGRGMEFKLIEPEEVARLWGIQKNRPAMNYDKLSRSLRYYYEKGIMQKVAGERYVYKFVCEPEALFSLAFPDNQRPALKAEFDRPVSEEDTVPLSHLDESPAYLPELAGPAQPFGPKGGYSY
UniProt Q9H4H8: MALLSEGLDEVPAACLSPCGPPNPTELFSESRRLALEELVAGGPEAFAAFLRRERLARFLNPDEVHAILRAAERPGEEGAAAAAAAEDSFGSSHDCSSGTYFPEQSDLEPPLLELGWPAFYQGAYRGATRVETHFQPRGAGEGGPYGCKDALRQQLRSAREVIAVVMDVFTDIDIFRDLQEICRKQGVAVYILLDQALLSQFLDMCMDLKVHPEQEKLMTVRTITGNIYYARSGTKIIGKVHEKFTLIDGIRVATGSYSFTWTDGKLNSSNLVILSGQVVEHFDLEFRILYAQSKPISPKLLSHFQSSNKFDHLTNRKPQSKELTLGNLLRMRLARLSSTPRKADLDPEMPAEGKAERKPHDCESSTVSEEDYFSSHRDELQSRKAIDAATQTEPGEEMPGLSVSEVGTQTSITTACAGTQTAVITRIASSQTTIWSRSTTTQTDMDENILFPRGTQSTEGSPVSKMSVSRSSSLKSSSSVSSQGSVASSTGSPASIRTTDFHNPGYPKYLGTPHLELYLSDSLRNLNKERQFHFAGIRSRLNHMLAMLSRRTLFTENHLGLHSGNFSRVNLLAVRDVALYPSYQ
UniProt Q96KP1: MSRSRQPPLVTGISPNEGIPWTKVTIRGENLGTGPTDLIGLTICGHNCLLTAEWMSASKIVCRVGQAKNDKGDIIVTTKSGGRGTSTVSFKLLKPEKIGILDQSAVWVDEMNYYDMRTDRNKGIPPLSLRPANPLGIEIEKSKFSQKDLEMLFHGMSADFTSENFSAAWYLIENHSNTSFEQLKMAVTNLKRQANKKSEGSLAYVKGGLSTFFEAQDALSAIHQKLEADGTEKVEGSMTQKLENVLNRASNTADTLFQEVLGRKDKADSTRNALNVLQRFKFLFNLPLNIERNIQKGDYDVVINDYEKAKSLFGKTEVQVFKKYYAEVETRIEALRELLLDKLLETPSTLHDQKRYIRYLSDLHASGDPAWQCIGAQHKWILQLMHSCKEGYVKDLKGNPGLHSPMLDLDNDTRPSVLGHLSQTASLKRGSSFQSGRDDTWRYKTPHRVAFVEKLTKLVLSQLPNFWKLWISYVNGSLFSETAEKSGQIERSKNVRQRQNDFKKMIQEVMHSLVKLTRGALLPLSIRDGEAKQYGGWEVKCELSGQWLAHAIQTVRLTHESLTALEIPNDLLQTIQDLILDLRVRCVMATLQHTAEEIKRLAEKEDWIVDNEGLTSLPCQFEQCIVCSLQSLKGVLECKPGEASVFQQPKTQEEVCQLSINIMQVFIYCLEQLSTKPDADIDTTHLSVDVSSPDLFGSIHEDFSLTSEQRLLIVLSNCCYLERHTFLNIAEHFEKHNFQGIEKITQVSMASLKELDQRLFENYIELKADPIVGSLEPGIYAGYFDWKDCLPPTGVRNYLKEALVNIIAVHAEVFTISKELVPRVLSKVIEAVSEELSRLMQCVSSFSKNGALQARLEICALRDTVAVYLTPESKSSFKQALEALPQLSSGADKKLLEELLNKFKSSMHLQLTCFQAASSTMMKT
UniProt Q9GZU8: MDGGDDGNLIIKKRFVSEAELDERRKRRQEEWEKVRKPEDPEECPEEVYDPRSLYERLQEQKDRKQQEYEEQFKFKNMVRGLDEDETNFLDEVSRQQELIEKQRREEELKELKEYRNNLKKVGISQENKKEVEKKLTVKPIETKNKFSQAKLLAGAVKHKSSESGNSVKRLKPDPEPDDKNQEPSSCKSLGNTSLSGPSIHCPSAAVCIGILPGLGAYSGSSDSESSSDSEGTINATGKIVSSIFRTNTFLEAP
UniProt Q5T8I3: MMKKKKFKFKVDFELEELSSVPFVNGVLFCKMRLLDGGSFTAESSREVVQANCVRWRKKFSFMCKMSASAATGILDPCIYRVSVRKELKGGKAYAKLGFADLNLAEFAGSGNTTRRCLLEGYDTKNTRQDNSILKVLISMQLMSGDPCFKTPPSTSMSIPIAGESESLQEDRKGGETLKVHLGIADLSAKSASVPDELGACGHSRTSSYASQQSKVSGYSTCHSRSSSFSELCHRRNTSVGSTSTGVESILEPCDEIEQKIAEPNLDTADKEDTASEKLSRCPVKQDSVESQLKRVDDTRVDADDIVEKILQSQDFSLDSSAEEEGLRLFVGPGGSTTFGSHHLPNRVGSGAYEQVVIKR

Assays:
Test in all cases: log2 fold change, soluble protein after heating vs DMSO (PISA); higher = thermal stabilisation; K562 lysate, 10 uM; active = over 0.2 and 3.5 SD of the protein, either way, in both replicates (recomputed)
erlotinib = compound: C#Cc1cccc(Nc2ncnc3cc(OCCOC)c(OCCOC)cc23)c1 [erlotinib]
How it was run: (§1)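 Dounce homogenisation of K562 pellets in PBS pH 7.4 with 1 mM MgCl2 produced a crude extract, used at 1 mg/mL protein. Exposure to 10 μM compound lasted 30 min, and aliquots were then heated for 3 min across 48°C-58°C, pooled and brought to 0.5% NP-40 at 4°C. The supernatant after 21,000xg for 90 min was quantified by TMTpro 16plex LC-MS/MS with channel sums equalised. Duplicate values are given as log-two fold change in thermal stability relative to solvent controls.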

[1] = compound: C/C(=N\NC(=O)C1=CC(=CC=C1)S(=O)(=O)N2CCOCC2)/C3=C(C=CC(=C3)Cl)O
How it was run: as §1

[2] = compound: C1=CC(=CC=C1C2=NC3=C(N2)C=C(C=C3)C(=O)N)OC4=CC=C(C=C4)Cl
How it was run: as §1

[3] = compound: C1=CC2=C(C=CC(=C2)/C=C\3/C(=O)NC(=NCC4=CC=CS4)S3)N=C1
How it was run: as §1

[4] = compound: C1=CC2=NC=CN=C2C=C1/C=C/3\C(=O)NC(=O)S3
How it was run: as §1

[5] = compound: C1=CC=C(C=C1)C2=NC(=C(N2)C3=CC=NC=C3)C4=CC(=C(C=C4)Cl)O
How it was run: as §1

[6] = compound: C1=CC=C2C(=C1)C3=NNC4=CC=CC(=C43)C2=O
How it was run: as §1

[7] = compound: C1CCN(C1)C(=O)NC2=CC=CC(=C2)NC3=NC=C(C(=N3)NCCC4=CN=CN4)Br
How it was run: as §1

[8] = compound: C1CN(CCC1(CC2=CC=C(C=C2)Cl)N)C3=NC=NC4=C3C=CN4
How it was run: as §1

IRAK-1-4 Inhibitor I = compound: C1COCCN1CCN2C3=CC=CC=C3N=C2NC(=O)C4=CC(=CC=C4)[N+](=O)[O-] [IRAK-1-4 Inhibitor I]
How it was run: as §1

Measured: log2 fold change

FADS3 (UniProt Q9Y5Q0)
inactive: erlotinib 0.075 | [1] -0.355 | [2] -0.052 | [3] 0.118 | [4] 0.016 | [5] -0.072 | [6] -0.124 | [7] 0.109 | [8] -0.291 | IRAK-1-4 Inhibitor I -0.097

FAM160B2 (UniProt Q86V87)
inactive: erlotinib 0.021 | [1] -0.007 | [2] -0.023 | [3] 0.127 | [5] -0.057 | [6] -0.012 | [7] -0.008 | [8] 0.068 | IRAK-1-4 Inhibitor I -0.063

FAM222B (UniProt Q8WU58)
inactive: erlotinib -0.013 | [1] -0.016 | [2] 0.066 | [3] 0.254 | [4] 0.069 | [5] -0.116 | [6] -0.354 | [7] -0.036 | [8] 0.158 | IRAK-1-4 Inhibitor I 0.043

EXOC3 (UniProt O60645)
inactive: erlotinib 0.033 | [1] 0.027 | [2] 0.006 | [3] 0.033 | [4] 0.039 | [5] 0.011 | [6] -0.04 | [7] 0.018 | [8] -0.001 | IRAK-1-4 Inhibitor I 0.013

F2RL3 (UniProt Q96RI0)
inactive: erlotinib -0.039 | [1] 0.003 | [2] 0.043 | [3] 0.059 | [5] 0.064 | [6] -0.102 | IRAK-1-4 Inhibitor I 0.024

EXOSC6 (UniProt Q5RKV6)
inactive: erlotinib 0 | [1] 0.071 | [2] -0.004 | [3] -0.02 | [4] -0.013 | [5] 0.004 | [6] 0.02 | [7] 0.035 | [8] 0.004 | IRAK-1-4 Inhibitor I 0.014

ERICH1 (UniProt Q86X53)
inactive: erlotinib 0.094 | [1] -0.017 | [2] 0.125 | [3] -0.062 | [4] -0.254 | [5] 0.011 | [6] -0.339 | [7] 0.036 | [8] 0.054 | IRAK-1-4 Inhibitor I 0.084

FAM160A2 isoform 2 (UniProt Q8N612)
inactive: erlotinib -0.021 | [1] -0.006 | [2] -0.023 | [3] -0.022 | [4] -0.085 | [6] -0.062 | [7] 0.051 | [8] 0.105

ETFRF1 (UniProt Q6IPR1)
inactive: erlotinib -0.032 | [1] -0.008 | [2] -0.048 | [3] 0.083 | [4] -0.064 | [5] -0.038 | [6] -0.063 | IRAK-1-4 Inhibitor I -0.002

EXOSC8 (UniProt Q96B26)
inactive: erlotinib 0 | [1] -0.015 | [2] 0.014 | [3] 0.023 | [4] 0.011 | [5] 0.002 | [6] 0.095 | [7] -0.008 | [8] -0.009 | IRAK-1-4 Inhibitor I -0.02

FAM177A1 isoform 2 (UniProt Q8N128)
inactive: erlotinib 0.038 | [1] 0.106 | [2] -0.028 | [3] 0.045 | [4] 0.015 | [5] 0.021 | [6] -0.009 | IRAK-1-4 Inhibitor I -0.057

FAM111A (UniProt Q96PZ2)
inactive: erlotinib -0.025 | [1] -0.04 | [2] -0.01 | [3] 0.002 | [5] -0.088 | [6] -0.088 | [7] 0.046 | [8] 0.022 | IRAK-1-4 Inhibitor I -0.088

FAM126A (UniProt Q9BYI3)
inactive: erlotinib 0.017 | [1] -0.264 | [2] -0.047 | [3] 0.176 | [4] -0.037 | [5] -0.018 | [6] -0.251 | IRAK-1-4 Inhibitor I 0.082

FAM185A (UniProt Q8N0U4)
inactive: erlotinib 0.2 | [1] -0.276 | [2] 0.055 | [3] -0.448 | [4] 0.016 | [5] -0.002 | [6] 0.04 | IRAK-1-4 Inhibitor I 0.025

FAM193A, A0A1B0GVL4
inactive: erlotinib 0.089 | [1] 0.239 | [2] -0.015 | [3] 0.111 | [4] 0.035 | [6] 0.052 | [7] -0.065 | [8] -0.052

EVL isoform 2 (UniProt Q9UI08)
inactive: erlotinib -0.024 | [1] 0.068 | [2] 0.096 | [3] -0.148 | [4] 0 | [5] -0.016 | [6] 0.032 | [7] -0.025 | [8] 0 | IRAK-1-4 Inhibitor I -0.118

FAM241A (UniProt Q8N8J7)
inactive: erlotinib 0.019 | [1] 0.008 | [2] -0.032 | [3] -0.028 | [4] -0.057 | [5] -0.073 | [6] -0.015 | [7] 0.015 | [8] 0.052 | IRAK-1-4 Inhibitor I -0.015

FAF1 (UniProt Q9UNN5)
inactive: erlotinib -0.006 | [1] 0.01 | [2] 0 | [3] 0.005 | [4] -0.002 | [5] 0.003 | [6] 0.007 | [7] 0.031 | [8] -0.003 | IRAK-1-4 Inhibitor I -0.006

F5 (UniProt P12259)
inactive: erlotinib -0.041 | [1] -0.015 | [2] -0.054 | [3] -0.06 | [4] 0.009 | [5] -0.015 | [6] 0.059 | [7] 0.026 | [8] -0.023 | IRAK-1-4 Inhibitor I -0.048

ETV4 (UniProt P43268)
inactive: erlotinib 0.038 | [1] 0.371 | [2] 0.027 | [3] 0.015 | [5] -0.032 | [6] -0.027 | [7] 0.033 | [8] 0.25 | IRAK-1-4 Inhibitor I 0.118

FAM83D (UniProt Q9H4H8)
inactive: erlotinib 0.033 | [1] 0.013 | [2] -0.049 | [3] 0.006 | [4] 0 | [5] -0.009 | [6] -0.003 | [7] -0.005 | [8] -0.004 | IRAK-1-4 Inhibitor I 0.019

EXOC2 (UniProt Q96KP1)
inactive: erlotinib 0.011 | [1] -0.008 | [2] -0.028 | [3] 0.049 | [4] -0.008 | [5] -0.001 | [6] -0.042 | [7] -0.018 | [8] 0.016 | IRAK-1-4 Inhibitor I 0.009

Taken from above (2 entries):
FAM83D (UniProt Q9H4H8)
inactive: erlotinib 0.033 | [1] 0.013 | [2] -0.049 | [3] 0.006 | [4] 0 | [5] -0.009 | [6] -0.003 | [7] -0.005 | [8] -0.004 | IRAK-1-4 Inhibitor I 0.019

EXOC2 (UniProt Q96KP1)
inactive: erlotinib 0.011 | [1] -0.008 | [2] -0.028 | [3] 0.049 | [4] -0.008 | [5] -0.001 | [6] -0.042 | [7] -0.018 | [8] 0.016 | IRAK-1-4 Inhibitor I 0.009

Further entries

ESF1 (UniProt Q9H501)
inactive: erlotinib -0.007 | [1] -0.094 | [2] -0.002 | [3] -0.01 | [4] -0.041 | [5] 0.068 | [6] 0.04 | [7] 0.025 | [8] 0.018 | IRAK-1-4 Inhibitor I -0.008

EXD2 (UniProt Q9NVH0)
inactive: erlotinib 0.189 | [1] 0.035 | [2] -0.125 | [3] -0.108 | [5] 0.042 | [6] 0.096 | IRAK-1-4 Inhibitor I 0.036

FAM20B (UniProt O75063)
inactive: erlotinib 0.021 | [1] 0.081 | [2] -0.039 | [3] -0.038 | [4] 0.016 | [5] -0.035 | [6] -0.009 | [7] -0.05 | [8] -0.001 | IRAK-1-4 Inhibitor I -0.028

FAM210A (UniProt Q96ND0)
inactive: erlotinib -0.016 | [1] -0.008 | [2] 0.028 | [3] 0.042 | [4] -0.016 | [5] -0.113 | [6] -0.008 | [7] 0.024 | [8] -0.018 | IRAK-1-4 Inhibitor I -0.011

FAM192A (UniProt Q9GZU8)
inactive: erlotinib -0.054 | [1] 0 | [2] -0.054 | [3] 0.001 | [4] 0.004 | [5] -0.001 | [6] 0.056 | [7] 0.004 | [8] -0.012 | IRAK-1-4 Inhibitor I -0.027

FAM102B (UniProt Q5T8I3)
inactive: erlotinib -0.158 | [1] -0.037 | [2] 0.196 | [3] -0.111 | [4] -0.165 | [6] 0.031 | [7] 0.039 | [8] -0.105

EXOC5 (UniProt O00471)
inactive: erlotinib 0.022 | [1] -0.021 | [2] -0.041 | [3] 0.033 | [4] -0.006 | [5] -0.013 | [6] -0.016 | [7] 0.005 | [8] 0.006 | IRAK-1-4 Inhibitor I -0.011
